From publication PMC10163288
The other results are listed elsewhere or left out.

B1: il2ra_site1_1z92_sap_5_mot_108be8bf5286040dcbfed5edda487183_0001_000000086_0001_19_33_H_._HHH_b1_01259_af2_0002_0000400030_0000001_0_0001 (protein)
chain: NLERDAEQVLKFAPSPEALRHVLERLLKASGDPEDRKEFIEIVEEIARELGNEELERAAREALEK
B2: il2ra_site2_2erj_sap_13_mot_HHH_b1_07806_000000211_0001_42_56_H_._HHH_b1_08154_af2_0001_0000100006_0000001_0_0001 (protein)
chain: SSSSSDLRELYELANELMHAIARGDEELFEKLVEEIRELAEELDSETAKKILRELEKLARSSSSS
B3: il2ra_site1_3nfp_normal_mot_HHH_b2_08182_af2_000000158_0001_1_17_H_._HHH_b1_00105_af2_0001_0000400016_0000001_0 (protein)
chain: SSSDREEVRRLLERALRLLFEGNEEEVKELVERLRELVEEIGDPSLKRYLEDIEKALEQLGSSSS
B4: il2ra_site2_2erj_sap_17_mot_720936397f2d31669eff21710c18a4fc_0001_000000071_0001_37_51_H_._HHH_b1_05245_af2_0001_0001300031_0000001_0_0001 (protein)
chain: SSSSSDIEQRVQELLEEAVRVQDEERFKKLLEEAEELAEELGDEELKAMIEVLEEYAERLSSSSS
B5: il2ra_site1_1z92_sap_15_mot_HHH_b1_03003_000000182_0001_43_57_H_._HHH_b2_04055_0003_0000200006_0000001_0_0001_af2pred_0001_af2pred (protein)
chain: SSSSEERLEKAAKIVVRIARRINGLSEEQKEKLEELAKELLERGLDREEISRKLDELALRLSSSS
B6: il2ra_site2_2erj_sap_25_mot_HHH_b2_04462_000000161_0001_43_56_H_._HHH_b1_00464_af2_0001_0000100003_0000001_0_0001 (protein)
chain: SSSSSEEVEELIEEARELIEEGDPEKALEVLREAFHRAYELNDLELFSRLAELTHEIARALSSSS
B7: il2ra_site1_2b5i_normal_mot_HHH_b2_08221_000000034_0001_1_18_H_._HHH_b1_05421_af2_0001_0000100001_0000001_0_af2pred_dldesign_0_af2pred (protein)
chain: SSSSSKVRALLERIEELAKRYEETGDPSLIEEIKKLVEELKKLGCNAAVKFAELAIKQLLESSSS
B8: il2ra_site1_1z92_normal_mot_b1fbee8209167eaadba3689d49187f1a_0001_1_af2_000000018_0001_16_31_H_._9e622f7d73aa0ff91040b48e8c7f7504_0001_1_0001_0000100009_0000001 … (protein)
chain: DEEEAEELLREILKENGSKEALERDLEQAERALGDPKLALKALIRIALQIYGDPRLEEAEQLVRK
B9: il2ra_site2_3nfp_normal_mot_HHH_b2_07840_000000026_0001_18_34_H_._HHH_b2_04827_0001_0000100003_0000001_0 (protein)
chain: SSSSDEEVERLLEEAERALEEGDREEARQILARAALLAFELRDHELFALVQDVMELIIRRSSSSS
B10: il2ra_site2_3nfp_normal_mot_HHH_b1_05785_af2_000000002_0001_41_57_H_._HHH_b1_03527_af2_0001_0000800015_0000001_0 (protein)
chain: SSSSDEAEEYVKAALALLEEALEQGDEELFEKLARLIELAIEDLGNPELEERLEELKERGSSSSS
B11: il2ra_site1_2b5i_sap_14_mot_HHH_b2_03242_af2_000000120_0001_1_19_H_._ems_p1-14H-GBL-16H-GABBL-15H_0264_0001_0001_0001_0001_0000200016_0000001_1_0001 (protein)
chain: DLMKRVVRAVLKIIWRAGVPRITVRNNDGEVRVTIHGDDEAARAAEELIREVAEELNANVEVTVE
B12: il2ra_site1_2b5i_sap_9_mot_HHH_b1_07759_af2_000000221_0001_42_56_H_._HHH_b2_06866_af2_0001_0000600029_0000001_0_0001_af2pred_dldesign_0_af2pred (protein)
chain: SSSSSSSYRELVEALIEKAKKEEDPLLRNKILTLARRVARKGEDPELIARVEALREELSSSSSSS
B13: il2ra_site1_1z92_normal_mot_0d89ad2be31940e41b8548213a5e2889_0001_000000090_0001_19_33_H_._0157305b669e031816377e0677f95be5_0001_af2_0001_0000300022_0000001_0_a … (protein)
chain: SEVAELIEKALEEKDPRLLEEAVKILAEKLNIPPEKAKRFLERLIKVNHPPEEQEILEELAKRVP
B14: il2ra_site2_3nfp_sap_17_mot_0136b98644bc9a8eb58b95019b738ebb_0001_1_000000071_0001_1_13_H_._HHH_b1_06685_af2_0001_0000200005_0000001_1_0001 (protein)
chain: SSSSSELEEYIRAALALLRLAIEEGDPFAARELIEAIRAAVEAAGNEELERELEELEEELDSSSS
B15: il2ra_site2_2erj_sap_1_mot_09e7cb7e633bb54c4420ff763e5edef5_0001_000000268_0001_36_50_H_._HHH_b2_05571_0001_0000200008_0000001_0_0001_af2pred_0001_af2pred (protein)
chain: SSSSDLKERVLRLAEEVEELLKRGDEEEAERVIEEIEELAEKRKSPSLRLALEHAREALKTSSSS
B16: il2ra_site1_3nfp_normal_mot_HHH_b2_02066_af2_000000034_0001_1_16_H_._HHH_b2_03896_af2_0001_0000500054_0000001_0_af2pred_0001_af2pred_1 (protein)
chain: SSSSSELAKRIQELLEQVRELKRNGNPEEAREVLEEARKLAEELGDEAAKRLIERIEKALNSSSS
B17: il2ra_site1_3nfp_sap_13_mot_311205a5f7018ed2e03f51fd3ffd5b95_0001_af2_000000228_0001_32_48_H_._c607dfab87a151aea9e7d1f821f406b9_0001_0001_0000200009_0000001_1_0 … (protein)
chain: SSDEYFERLVERVTKLAEEKNDEEVEELAKRALELWKEALENQDSEAADEAIRIVARLQNRVQSS
B18: il2ra_site1_3nfp_normal_mot_3a6c29ce16e7a142d506a79bd9648f85_0001_1_af2_000000100_0001_17_31_H_._1b0870e2a35aab0289d4b93f27226a6f_0001_af2_0001_0000800013_00000 … (protein)
chain: TAVERLVRLLAKDGVPPEEIAERLYEDAEKVGNLEALEEELEELVKKTGDPTLKRILEVLEELVR
B19: il2ra_site2_2erj_sap_16_mot_HHH_b2_01090_af2_000000277_0001_23_39_H_._bd5262115ee662b976c7de79e023da4f_0001_1_0001_0000200007_0000001_0_0001 (protein)
chain: SSSSSSAMEAFRIVSELTEEFNLDWKQAHALFELAKRLLEEGFSEEEIREILEELAERLSSSSSS
B20: il2ra_site1_2b5i_normal_mot_a7d4ab743ae57deeac5d741f7278d18b_0001_af2_000000162_0001_36_49_H_._HHH_b1_06628_af2_0001_0000100003_0000001_0_af2pred_dldesign_0_af2 … (protein)
chain: SSSSDPAAEALAETVAALRAAAAAGDEVLLHKVLKLGLKRLRRLGAPEAAAALEALAAELSSSSS
B21: il2ra_site2_2erj_sap_15_mot_HHH_b1_03833_000000078_0001_1_20_H_._HHH_b2_04583_af2_0001_0000400022_0000001_0_0001 (protein)
chain: SSSSDELHELYELANRIMHALANNDEEKVRELLEELRELIERFDSTTAREILETLEKHLGSSSSS
B22: il2ra_site2_3nfp_sap_11_mot_HHH_b2_05877_000000116_0001_23_40_H_._HHH_b1_03602_0001_0000300025_0000001_0_0001_af2pred_0001_af2pred (protein)
chain: SSSSSDDVEYAVNYAAALLQAGLVDEELAKRAAEFALKQLGVSEEEIEEAKEKIEEVARRSSSSS
B23: il2ra_site1_3nfp_sap_19_mot_HHH_b2_06897_000000190_0001_40_57_H_._71be647701ff1b2f9c0375d933d1ad3f_0001_0001_0000300018_0000001_0_0001 (protein)
chain: DKQLEERLERLLGDPEKAREVLRLIVRIAVEHNVPPREAVEILIEEAKEEGDELTLKAAELLLRF
B24: il2ra_site1_3nfp_normal_mot_HHH_b2_02552_af2_000000235_0001_1_20_H_._HHH_b1_03251_af2_0001_0000100005_0000001_0_af2pred_0001_af2pred_1_swapped (protein)
chain: SSSSDEESEEFLEEVKEQLEELLRRGDIREASEVVERAIRFLQKKGNPELVEELLKFAHELSSSS

Molecular target: il2ra, P01589
Assay: yeast display titration

Apparent Kd, inactive:
B1 no binding seen
B2 no binding seen
B3 no binding seen
B4 no binding seen
B5 no binding seen
B6 no binding seen
B7 no binding seen
B8 no binding seen
B9 no binding seen
B10 no binding seen
B11 no binding seen
B12 no binding seen
B13 no binding seen
B14 no binding seen
B15 no binding seen
B16 no binding seen
B17 no binding seen
B18 no binding seen
B19 no binding seen
B20 no binding seen
B21 no binding seen
B22 no binding seen
B23 no binding seen
B24 no binding seen

Two entries drawn at random from the list so far:
Apparent Kd, inactive:
B13 no binding seen
B22 no binding seen
